Assay results from patent US20260335272A1, “SAGERINIC ACID AND COMPOSITIONS CONTAINING SAME, FOR USE IN THE PREVENTION AND/OR TREATMENT OF SENESCENCE-RELATED DISORDERS IN A HUMAN OR ANIMAL” (A2P SCIENCES, priority 2022, published 2026).
At least one read-out could not be matched to a standard name with certainty.

Tested on: Collagenase
Test: Collagenase activity kit (Sigma Aldrich MAK293, FALGPA substrate), anti-collagenase activity
Type: biochemical
Settings: 1% (w/V) inhibitor solution, 4 μl in 400 μl; 37 °C, 30 minutes; 345 nm; absolute value Y=[(DOBlank 2−DOTest)−(DOBlank 1−DOcontrol)]/(DOBlank 1−DOcontrol)×100
Method: A collagenase activity analysis kit (Sigma Aldrich MAK293) is used. The kit allows to screen collagenase inhibitors by measuring collagenase activity using a synthetic peptide (FALGPA) that mimics the structure of the collagen.
• Solutions of the kit: Reference MAK293-1KT (Sigma Aldrich) • Collagenase buffer (MAK293A-KC) • Collagenase solution (MAK293B-KC) • Collagenase substrate (MAK293C-KC) • Pharmethyl 96° ethyl alcohol, Reference 11371014 (Cristalco) • Purified water
A solution is made of exactly 1% (w/V) hamamelitannin (Extrasynthesis ref. 0958) in ethyl alcohol.
A solution of exactly 1% (w/V) sagerinic acid (prepared according to example 5.1.) is made in purified water.
A series of hermetically sealed pillboxes are filled with:
• After addition, stir quickly by hand • Place in an oven at 37 °C for 30 minutes • Add 1.6 mL of purified water. Mix well. • Read the DO: Sample against blank, spectrophotometer at 345 nm.
The anti-collagenase activity of sagerinic acid was compared with that of hamamelitannin as a reference molecule.
In absolute values: Y=[(DOBlank 2−DOTest)−(DOBlank 1−DOcontrol)]/(DOBlank 1−DOcontrol)]×100

SMILES	Activity (anti-collagenase activity)
O=C(OC[C@H]1OC(O)[C@@](O)(COC(=O)c2cc(O)c(O)c(O)c2)[C@@H]1O)c1cc(O)c(O)c(O)c1 (some centres unmarked) [Hamamelitannin, hamamelitannin, reference compound]	21.43 arbitrary dimensionless unit
O=C(O[C@H](Cc1ccc(O)c(O)c1)C(=O)O)C1C(c2ccc(O)c(O)c2)C(C(=O)O[C@H](Cc2ccc(O)c(O)c2)C(=O)O)C1c1ccc(O)c(O)c1 (some centres unmarked) [Sagerinic acid]	46.43 arbitrary dimensionless unit
